# According to patent US20190031748A1:
# The chains behind the UniProt entries cited, without tags or fusion partners. Residues count along the entry.
# UniProt P06881, residues 83-119: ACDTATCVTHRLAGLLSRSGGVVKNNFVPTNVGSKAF
# No constants are given. Whether binding was seen depends on the method and setting. Some entries that bind do so weakly or less than the wild type.
# B1: CA11 antibody (mouse IgG1/kappa) (antibody, V domains shown)
# VH: EVQLQQSGPELVKPGASVKMSCKASGYTFTRSVMHWVKQKPGQGLEWIGYINPYNDGTKYNEKFKGKATLTSDKSSSTAYMELSSLTSEDSAVYYCAKSGNDGYWGQGTTLTVSS
# VL: EIVLTQSPTTMAASPGEKITITCSASSSISSIYLHWYQQKPGFSPKVLIYRAKNLASGVPARFSGSGSGTSYSLTIGTMEAEDVATYYCQQGSTIPFTFGSGTKLEIKR
# Target: alpha-CGRP (Bachem) standard (UniProt P06881)
# Test: MSD sandwich immunoassay; CGRP standard spiked into matrices; biotin-Antibody I capture, Sulfo-Tag CA11 detection
binder,measurement,value
B1,binding,binds
